This assay in a line: qHTS Assay to Find Inhibitors of Chronic Active B-Cell Receptor Signaling. Particulars: ABC-DLBCL IkBa-CBG/CBR reporter, luminescence ratio (green luciferase fused to IkBa over red control in TMD8 lymphoma cells), 4 h. The method in brief:
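TMD8 human ABC-DLBCL cells with doxycycline-inducible IκBα–green luciferase fusion and unfused red luciferase, in 0.5% FBS medium; compounds up to 46 uM, 4 h at 37C. Green/red luminescence ratio, filter-overlap corrected, fitted to concentration-response curves.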

The mark [1] stands for this setting: measured here: CBR red luminescence, cell number.
Where [2] appears, read: measured here: IkBa-CBG green luminescence.

Molecules are shown by their SMILES. The list shows a part of the results. Further columns of the screen follow, without active or inactive calls. Most of these compounds were active or inconclusive in the main read-out, so they are no random draw. Potencies come from curve fits of mixed quality, noted in brackets.

Regarding `Cc1ccc(-c2ccc(SCC(=O)Nc3ccc4c(c3)OCCO4)nn2)cc1`, under setting [1], the AC50 was 25.9 µM [falling, single point].

As for `COc1ccc(CNCC(O)(c2ccccc2)c2ccccc2)cc1OC`, under setting [1], the AC50 was 2.82 µM [falling, partial curve, poor fit].

As for `O=C(C1CCN(S(=O)(=O)c2cccs2)CC1)N1CCc2ccccc2C1`, under setting [1], the AC50 was 29.1 µM [rising, single point].

For the compound `Cc1ccccc1-c1nc(CS(=O)(=O)CC(=O)N2CCc3ccccc32)c(C)o1`, the AC50 under setting [1] was 0.0411 µM [rising, full curve, poor fit].

Take `Cc1cccc(C(=O)Nc2sc3c(c2C(=O)O)CCC3)c1`: under setting [1], the AC50 is 0.501 µM [falling, full curve].

For `O=C(ON=C1CCN(S(=O)(=O)c2ccccc2)CC1)c1cccc(Cl)c1`, the AC50 under setting [1] is 9.2 µM [rising, partial curve, poor fit].

Take `C=CCNC(=S)N/N=C/c1ccc(-c2cccc([N+](=O)[O-])c2)o1`: under setting [1], the AC50 was 7.94 µM [rising, partial curve, poor fit].

Consider `CCc1ccc(OCC(=O)N/N=C2\CC(=O)c3ccccc32)cc1`, for which the AC50 under setting [1] was 20.6 µM [falling, single point].

Turning to `NC(=S)N/N=C/c1cc([N+](=O)[O-])ccc1OCCOc1ccccc1`, under setting [1], the AC50 is 18.4 µM [rising, single point].

Turning to `CCCC(c1nnnn1CC1CCCO1)N1CCN(c2nc3ccccc3s2)CC1` (configuration not stated), the AC50 under setting [1] was 0.13 µM [falling, full curve, poor fit].

Turning to `O=C(COc1ccc(Br)cc1CNCCc1ccccc1)NCc1ccccc1`, the AC50 under setting [1] was 35.5 µM [falling, single point].

For the compound `CCc1cc2c(=O)c(-c3ccc4c(c3)OCCO4)c(C)oc2cc1OS(C)(=O)=O`, the AC50 under setting [1] is 18.4 µM [falling, single point].

For `C=CCN(C(=O)CNC(=O)c1ccco1)C(C(=O)NC1CCCCC1)c1ccccc1` (configuration not stated), under setting [1], the AC50 was 6.51 µM [rising, single point].

Consider `C=CCN1C(=O)/C(=C/c2ccc(OC(C)=O)c(OCC)c2[N+](=O)[O-])SC1=S`, for which, under setting [1], the AC50 was 3.98 µM [falling, partial curve].

As for `OCCN(CCO)c1ncnc2c1oc1ccc(Br)cc12`, the AC50 under setting [1] is 0.0731 µM [rising, full curve, poor fit].

As to `COc1ccc(CC(=O)N(C)Cc2cccc(F)c2)cc1S(=O)(=O)N1CCOCC1`, under setting [1], the AC50 was 4.61 µM [rising, full curve, poor fit].

Regarding `CS(=O)(=O)N1CCC(C(=O)NCCc2ccccc2)CC1`, the AC50 under setting [1] is 20.6 µM [rising, single point].

For the compound `O=C(NCC1CCCO1)c1cc2c([nH]c3ccccc32)c(-c2cccc(Cl)c2)n1` (configuration not stated), under setting [1], the AC50 was 6.31 µM [falling, full curve, poor fit].

Regarding `CCC1C(=O)NCCN1Cc1nc(-c2ccc(C)s2)oc1C` (configuration not stated), the AC50 under setting [1] is 0.708 µM [rising, full curve, poor fit].

For the compound `O=C1CC(Sc2ccc(Cl)cc2)C(=O)N1c1ccc2c(c1)OCCO2` (configuration not stated), the AC50 under setting [1] was 12.6 µM [falling, single point].

Take `CCOC(=O)c1ccc(NC(=O)c2c(C)[nH]c(C(=O)OCC)c2C)cc1`: the AC50 under setting [1] is 4.61 µM [rising, full curve, poor fit].

Consider `COc1ccc(N2CC(C)Cn3c2nc2c3c(=O)n(Cc3ccc(C)cc3)c(=O)n2C)c(OC)c1` (configuration not stated), for which the AC50 under setting [1] is 35.5 µM [falling, single point].

On to `O=C(NNC(=O)c1cccs1)c1ccc(Cl)nc1`, for which, under setting [1], the AC50 is 20.6 µM [falling, partial curve].

As for `N#Cc1ccc(S(=O)(=O)Nc2ccccc2N2CCOCC2)cc1`, the AC50 under setting [1] is 29.1 µM [rising, single point].

For the compound `CCN(CC)C(=O)c1cccc(NC(=O)c2cc(C3CC3)nc3c2cnn3C(C)C)c1`, under setting [1], the half-maximal activity concentration (AC50) is 29.1 µM [falling, partial curve, poor fit].

For the compound `CCN1C(=O)/C(=C\c2ccc3c(c2)OCO3)C(C(=O)OC)=C1C`, the AC50 under setting [1] was 6.31 µM [falling, partial curve].

Turning to `Cc1nc(CS(=O)(=O)c2ccc(Cl)cc2)cc(Sc2ccc(Cl)cc2)n1`, the AC50 under setting [1] was 29.1 µM [falling, single point].

For `COc1cc(C(=O)N2c3ccccc3CC2C)cc(OC)c1OC` (configuration not stated), under setting [1], the half-maximal activity concentration (AC50) is 2.59 µM [falling, full curve, poor fit].

In the case of `Cc1cc(C)c2c(=O)[nH]c(SCC(=O)N3CCOCC3)nc2n1`, the AC50 under setting [1] was 0.501 µM [falling, full curve, poor fit].

On to `COc1ccc(CN2CCN(C(=O)CCC(=O)Nc3nnc(C(F)(F)F)s3)CC2)cc1F`, for which the AC50 under setting [1] was 0.794 µM [falling, full curve, poor fit].

On to `CCOc1cc(C(c2c(C)[nH][nH]c2=O)c2c(C)[nH][nH]c2=O)cc(Br)c1OC`, for which the AC50 under setting [1] was 25.1 µM [falling, single point].

Take `O=C(N/N=C1\CC(c2ccccc2)Oc2ccccc21)c1ccc(O)cc1` (configuration not stated): the AC50 was 0.355 µM [falling, full curve, poor fit] under setting [1] and 22.4 µM [rising, partial curve, poor fit] under setting [2].

With `O=C(COC(=O)c1ccccc1NS(=O)(=O)c1cccs1)NCC12CC3CC(CC(C3)C1)C2`, under setting [1], the AC50 was 18.4 µM [falling, partial curve, poor fit].

For `CCNc1cc(Cl)nc(SC)n1`, the AC50 under setting [1] is 10 µM [rising, partial curve].

For `O=C(O)CSc1nnnn1-c1ccccc1`, the AC50 under setting [1] was 0.411 µM [rising, full curve, poor fit].

As to `CN(C)S(=O)(=O)c1cccc(N=C2NN=C(c3ccccc3)CS2)c1`, the AC50 is, setting by setting: under setting [1], 14.6 µM [falling, partial curve]; under setting [2], 20.6 µM [rising, single point].

`N#Cc1ccccc1CN1C(=O)NC2(CCCCCC2)C1=O`: under setting [1], the AC50 is 12.6 µM [falling, single point].

As for `O=C(CN1CCN(c2ccc(F)cc2)CC1)Nc1cccc(C(F)(F)F)c1`, the AC50 under setting [1] is 1 µM [falling, full curve].

As to `CCC(=O)Nc1ccccc1C(=O)OCC(=O)c1ccc2ccccc2c1`, the AC50 by setting is: under setting [1], 16.4 µM [falling, partial curve, poor fit]; under setting [2], 29.1 µM [rising, partial curve, poor fit].

Source of the values: PubChem BioAssay AID493014 (National Center for Advancing Translational Sciences (NCATS), 2011).
